Results are given in words; binding and its absence hold for the method and conditions named. In cells and extracts the contact can be indirect. For part of these data: Binding calls can cover weak binding; strength is not graded here.
How the values were obtained:
[1] = biological target: FLAG-USP22 N-terminal truncated mutant (human); assay: co-IP; HEK293 cells transfected with expression plasmids of ZEB1 and USP22 (full length or truncated mutants) or vector for 24 h; whole cell lysates
[2] = biological target: GST-USP22 N-terminal deletion mutant (human); assay: pull-down; GST pull-down: GST-USP22 deletion mutants with ZEB1 synthesized by in vitro transcription and translation kit; bound proteins analysed by western blot; only the target purified
[3] = biological target: GST-USP22 C-terminal deletion mutant (human); assay: as above

B1: ZEB1, expressed from plasmid in HEK293 cells (protein, UniProt P37275 1-1124)
chain: MADGPRCKRRKQANPRRNNVTNYNTVVETNSDSDDEDKLHIVEEESVTDAADCEGVPEDDLPTDQTVLPGRSSEREGNAKNCWEDDRKEGQEILGPEAQADEAGCTVKDDECESDAENEQNHDPNVEEFLQQQDTAVIFPEAPEEDQRQGTPEASGHDENGTPDAFSQLLTCPYCDRGYKRFTSLKEHIKYRHEKNEDNFSCSLCSYTFAYRTQLERHMTSHKSGRDQRHVTQSGCNRKFKCTECGKAFKYKHHLKEHLRIHSGEKPYECPNCKKRFSHSGSYSSHISSKKCISLIPVNGRPRTGLKTSQCSSPSLSASPGSPTRPQIRQKIENKPLQEQLSVNQIKTEPVDYEFKPIVVASGINCSTPLQNGVFTGGGPLQATSSPQGMVQAVVLPTVGLVSPISINLSDIQNVLKVAVDGNVIRQVLENNQANLASKEQETINASPIQQGGHSVISAISLPLVDQDGTTKIIINYSLEQPSQLQVVPQNLKKENPVATNSCKSEKLPEDLTVKSEKDKSFEGGVNDSTCLLCDDCPGDINALPELKHYDLKQPTQPPPLPAAEAEKPESSVSSATGDGNLSPSQPPLKNLLSLLKAYYALNAQPSAEELSKIADSVNLPLDVVKKWFEKMQAGQISVQSSEPSSPEPGKVNIPAKNNDQPQSANANEPQDSTVNLQSPLKMTNSPVLPVGSTTNGSRSSTPSPSPLNLSSSRNTQGYLYTAEGAQEEPQVEPLDLSLPKQQGELLERSTITSVYQNSVYSVQEEPLNLSCAKKEPQKDSCVTDSEPVVNVIPPSANPINIAIPTVTAQLPTIVAIADQNSVPCLRALAANKQTILIPQVAYTYSTTVSPAVQEPPLKVIQPNGNQDERQDTSSEGVSNVEDQNDSDSTPPKKKMRKTENGMYACDLCDKIFQKSSSLLRHKYEHTGKRPHECGICKKAFKHKHHLIEHMRLHSGEKPYQCDKCGKRFSHSGSYSQHMNHRYSYCKREAEERDSTEQEEAGPEILSNEHVGARASPSQGDSDERESLTREEDEDSEKEEEEEDKEMEELQEEKECEKPQGDEEEEEEEEEVEEEEVEEAENEGEEAKTEGLMKDDRAESQASSLGQKVGESSEQVSEEKTNEA
For B1, the binding [1] was “binds”.

B2: ZEB1, in vitro translated (protein, UniProt P37275 1-1124)
chain: MADGPRCKRRKQANPRRNNVTNYNTVVETNSDSDDEDKLHIVEEESVTDAADCEGVPEDDLPTDQTVLPGRSSEREGNAKNCWEDDRKEGQEILGPEAQADEAGCTVKDDECESDAENEQNHDPNVEEFLQQQDTAVIFPEAPEEDQRQGTPEASGHDENGTPDAFSQLLTCPYCDRGYKRFTSLKEHIKYRHEKNEDNFSCSLCSYTFAYRTQLERHMTSHKSGRDQRHVTQSGCNRKFKCTECGKAFKYKHHLKEHLRIHSGEKPYECPNCKKRFSHSGSYSSHISSKKCISLIPVNGRPRTGLKTSQCSSPSLSASPGSPTRPQIRQKIENKPLQEQLSVNQIKTEPVDYEFKPIVVASGINCSTPLQNGVFTGGGPLQATSSPQGMVQAVVLPTVGLVSPISINLSDIQNVLKVAVDGNVIRQVLENNQANLASKEQETINASPIQQGGHSVISAISLPLVDQDGTTKIIINYSLEQPSQLQVVPQNLKKENPVATNSCKSEKLPEDLTVKSEKDKSFEGGVNDSTCLLCDDCPGDINALPELKHYDLKQPTQPPPLPAAEAEKPESSVSSATGDGNLSPSQPPLKNLLSLLKAYYALNAQPSAEELSKIADSVNLPLDVVKKWFEKMQAGQISVQSSEPSSPEPGKVNIPAKNNDQPQSANANEPQDSTVNLQSPLKMTNSPVLPVGSTTNGSRSSTPSPSPLNLSSSRNTQGYLYTAEGAQEEPQVEPLDLSLPKQQGELLERSTITSVYQNSVYSVQEEPLNLSCAKKEPQKDSCVTDSEPVVNVIPPSANPINIAIPTVTAQLPTIVAIADQNSVPCLRALAANKQTILIPQVAYTYSTTVSPAVQEPPLKVIQPNGNQDERQDTSSEGVSNVEDQNDSDSTPPKKKMRKTENGMYACDLCDKIFQKSSSLLRHKYEHTGKRPHECGICKKAFKHKHHLIEHMRLHSGEKPYQCDKCGKRFSHSGSYSQHMNHRYSYCKREAEERDSTEQEEAGPEILSNEHVGARASPSQGDSDERESLTREEDEDSEKEEEEEDKEMEELQEEKECEKPQGDEEEEEEEEEVEEEEVEEAENEGEEAKTEGLMKDDRAESQASSLGQKVGESSEQVSEEKTNEA
B2 was tested, and the binding [2] was “binds” and the binding [3] was “no binding”.

Reference: PMC10008583
